Reference: publication PMC11518989

Amino acid sequences for entries named in this document (tags omitted). A change or cut given only in a name is not applied to a line headed by its entry.
UniProt Q9H8M2: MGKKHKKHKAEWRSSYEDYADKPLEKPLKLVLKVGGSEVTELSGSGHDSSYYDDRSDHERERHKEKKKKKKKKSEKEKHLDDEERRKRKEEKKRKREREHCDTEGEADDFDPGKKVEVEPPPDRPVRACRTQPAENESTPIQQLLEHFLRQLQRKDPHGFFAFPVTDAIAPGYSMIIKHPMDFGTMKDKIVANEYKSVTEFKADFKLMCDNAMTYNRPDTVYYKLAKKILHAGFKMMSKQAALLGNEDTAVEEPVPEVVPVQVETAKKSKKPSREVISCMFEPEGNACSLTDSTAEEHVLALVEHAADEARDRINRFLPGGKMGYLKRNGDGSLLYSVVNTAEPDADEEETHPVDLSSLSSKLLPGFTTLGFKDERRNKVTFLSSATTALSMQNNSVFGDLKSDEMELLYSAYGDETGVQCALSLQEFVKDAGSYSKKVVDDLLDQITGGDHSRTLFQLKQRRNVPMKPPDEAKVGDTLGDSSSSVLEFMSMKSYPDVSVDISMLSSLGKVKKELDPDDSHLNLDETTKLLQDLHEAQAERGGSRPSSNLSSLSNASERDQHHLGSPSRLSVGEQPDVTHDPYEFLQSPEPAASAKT
UniProt Q9NZM4: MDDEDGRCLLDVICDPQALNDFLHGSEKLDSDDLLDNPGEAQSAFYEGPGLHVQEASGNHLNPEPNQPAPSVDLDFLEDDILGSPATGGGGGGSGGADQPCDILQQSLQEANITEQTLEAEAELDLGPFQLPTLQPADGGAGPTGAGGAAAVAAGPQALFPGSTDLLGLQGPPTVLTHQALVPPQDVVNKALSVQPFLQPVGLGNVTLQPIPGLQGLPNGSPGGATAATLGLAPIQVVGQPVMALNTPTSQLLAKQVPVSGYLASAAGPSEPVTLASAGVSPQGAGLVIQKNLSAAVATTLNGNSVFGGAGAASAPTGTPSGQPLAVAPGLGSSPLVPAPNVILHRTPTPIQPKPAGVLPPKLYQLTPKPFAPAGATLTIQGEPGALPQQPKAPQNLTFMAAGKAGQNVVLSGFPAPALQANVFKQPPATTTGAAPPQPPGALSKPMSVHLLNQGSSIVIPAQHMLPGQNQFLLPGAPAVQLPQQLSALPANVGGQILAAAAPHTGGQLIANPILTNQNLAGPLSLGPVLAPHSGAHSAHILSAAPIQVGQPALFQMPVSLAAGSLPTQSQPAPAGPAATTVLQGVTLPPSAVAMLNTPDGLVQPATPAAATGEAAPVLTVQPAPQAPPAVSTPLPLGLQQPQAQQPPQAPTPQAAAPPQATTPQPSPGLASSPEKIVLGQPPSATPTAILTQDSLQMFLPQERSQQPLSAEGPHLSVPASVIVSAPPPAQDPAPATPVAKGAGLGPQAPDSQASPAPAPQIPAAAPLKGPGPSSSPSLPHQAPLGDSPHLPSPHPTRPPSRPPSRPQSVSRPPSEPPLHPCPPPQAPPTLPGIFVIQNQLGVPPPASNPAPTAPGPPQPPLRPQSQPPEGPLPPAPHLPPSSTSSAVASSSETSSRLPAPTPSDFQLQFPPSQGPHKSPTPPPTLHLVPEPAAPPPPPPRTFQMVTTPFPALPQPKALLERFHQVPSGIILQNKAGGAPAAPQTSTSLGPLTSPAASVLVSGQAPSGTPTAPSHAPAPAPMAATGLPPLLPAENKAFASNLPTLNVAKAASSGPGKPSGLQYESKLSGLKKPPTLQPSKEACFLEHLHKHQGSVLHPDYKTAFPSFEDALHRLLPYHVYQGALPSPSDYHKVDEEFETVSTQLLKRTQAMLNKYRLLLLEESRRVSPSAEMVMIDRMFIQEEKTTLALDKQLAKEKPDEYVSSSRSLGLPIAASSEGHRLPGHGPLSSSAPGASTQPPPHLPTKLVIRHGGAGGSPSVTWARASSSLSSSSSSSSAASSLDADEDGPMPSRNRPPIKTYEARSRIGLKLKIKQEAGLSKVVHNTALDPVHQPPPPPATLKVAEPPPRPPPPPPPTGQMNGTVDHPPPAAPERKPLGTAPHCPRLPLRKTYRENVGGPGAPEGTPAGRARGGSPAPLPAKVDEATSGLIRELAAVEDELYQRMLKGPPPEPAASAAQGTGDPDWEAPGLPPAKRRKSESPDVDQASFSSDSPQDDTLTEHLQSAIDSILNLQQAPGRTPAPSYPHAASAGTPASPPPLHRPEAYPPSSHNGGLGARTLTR
UniProt P51587: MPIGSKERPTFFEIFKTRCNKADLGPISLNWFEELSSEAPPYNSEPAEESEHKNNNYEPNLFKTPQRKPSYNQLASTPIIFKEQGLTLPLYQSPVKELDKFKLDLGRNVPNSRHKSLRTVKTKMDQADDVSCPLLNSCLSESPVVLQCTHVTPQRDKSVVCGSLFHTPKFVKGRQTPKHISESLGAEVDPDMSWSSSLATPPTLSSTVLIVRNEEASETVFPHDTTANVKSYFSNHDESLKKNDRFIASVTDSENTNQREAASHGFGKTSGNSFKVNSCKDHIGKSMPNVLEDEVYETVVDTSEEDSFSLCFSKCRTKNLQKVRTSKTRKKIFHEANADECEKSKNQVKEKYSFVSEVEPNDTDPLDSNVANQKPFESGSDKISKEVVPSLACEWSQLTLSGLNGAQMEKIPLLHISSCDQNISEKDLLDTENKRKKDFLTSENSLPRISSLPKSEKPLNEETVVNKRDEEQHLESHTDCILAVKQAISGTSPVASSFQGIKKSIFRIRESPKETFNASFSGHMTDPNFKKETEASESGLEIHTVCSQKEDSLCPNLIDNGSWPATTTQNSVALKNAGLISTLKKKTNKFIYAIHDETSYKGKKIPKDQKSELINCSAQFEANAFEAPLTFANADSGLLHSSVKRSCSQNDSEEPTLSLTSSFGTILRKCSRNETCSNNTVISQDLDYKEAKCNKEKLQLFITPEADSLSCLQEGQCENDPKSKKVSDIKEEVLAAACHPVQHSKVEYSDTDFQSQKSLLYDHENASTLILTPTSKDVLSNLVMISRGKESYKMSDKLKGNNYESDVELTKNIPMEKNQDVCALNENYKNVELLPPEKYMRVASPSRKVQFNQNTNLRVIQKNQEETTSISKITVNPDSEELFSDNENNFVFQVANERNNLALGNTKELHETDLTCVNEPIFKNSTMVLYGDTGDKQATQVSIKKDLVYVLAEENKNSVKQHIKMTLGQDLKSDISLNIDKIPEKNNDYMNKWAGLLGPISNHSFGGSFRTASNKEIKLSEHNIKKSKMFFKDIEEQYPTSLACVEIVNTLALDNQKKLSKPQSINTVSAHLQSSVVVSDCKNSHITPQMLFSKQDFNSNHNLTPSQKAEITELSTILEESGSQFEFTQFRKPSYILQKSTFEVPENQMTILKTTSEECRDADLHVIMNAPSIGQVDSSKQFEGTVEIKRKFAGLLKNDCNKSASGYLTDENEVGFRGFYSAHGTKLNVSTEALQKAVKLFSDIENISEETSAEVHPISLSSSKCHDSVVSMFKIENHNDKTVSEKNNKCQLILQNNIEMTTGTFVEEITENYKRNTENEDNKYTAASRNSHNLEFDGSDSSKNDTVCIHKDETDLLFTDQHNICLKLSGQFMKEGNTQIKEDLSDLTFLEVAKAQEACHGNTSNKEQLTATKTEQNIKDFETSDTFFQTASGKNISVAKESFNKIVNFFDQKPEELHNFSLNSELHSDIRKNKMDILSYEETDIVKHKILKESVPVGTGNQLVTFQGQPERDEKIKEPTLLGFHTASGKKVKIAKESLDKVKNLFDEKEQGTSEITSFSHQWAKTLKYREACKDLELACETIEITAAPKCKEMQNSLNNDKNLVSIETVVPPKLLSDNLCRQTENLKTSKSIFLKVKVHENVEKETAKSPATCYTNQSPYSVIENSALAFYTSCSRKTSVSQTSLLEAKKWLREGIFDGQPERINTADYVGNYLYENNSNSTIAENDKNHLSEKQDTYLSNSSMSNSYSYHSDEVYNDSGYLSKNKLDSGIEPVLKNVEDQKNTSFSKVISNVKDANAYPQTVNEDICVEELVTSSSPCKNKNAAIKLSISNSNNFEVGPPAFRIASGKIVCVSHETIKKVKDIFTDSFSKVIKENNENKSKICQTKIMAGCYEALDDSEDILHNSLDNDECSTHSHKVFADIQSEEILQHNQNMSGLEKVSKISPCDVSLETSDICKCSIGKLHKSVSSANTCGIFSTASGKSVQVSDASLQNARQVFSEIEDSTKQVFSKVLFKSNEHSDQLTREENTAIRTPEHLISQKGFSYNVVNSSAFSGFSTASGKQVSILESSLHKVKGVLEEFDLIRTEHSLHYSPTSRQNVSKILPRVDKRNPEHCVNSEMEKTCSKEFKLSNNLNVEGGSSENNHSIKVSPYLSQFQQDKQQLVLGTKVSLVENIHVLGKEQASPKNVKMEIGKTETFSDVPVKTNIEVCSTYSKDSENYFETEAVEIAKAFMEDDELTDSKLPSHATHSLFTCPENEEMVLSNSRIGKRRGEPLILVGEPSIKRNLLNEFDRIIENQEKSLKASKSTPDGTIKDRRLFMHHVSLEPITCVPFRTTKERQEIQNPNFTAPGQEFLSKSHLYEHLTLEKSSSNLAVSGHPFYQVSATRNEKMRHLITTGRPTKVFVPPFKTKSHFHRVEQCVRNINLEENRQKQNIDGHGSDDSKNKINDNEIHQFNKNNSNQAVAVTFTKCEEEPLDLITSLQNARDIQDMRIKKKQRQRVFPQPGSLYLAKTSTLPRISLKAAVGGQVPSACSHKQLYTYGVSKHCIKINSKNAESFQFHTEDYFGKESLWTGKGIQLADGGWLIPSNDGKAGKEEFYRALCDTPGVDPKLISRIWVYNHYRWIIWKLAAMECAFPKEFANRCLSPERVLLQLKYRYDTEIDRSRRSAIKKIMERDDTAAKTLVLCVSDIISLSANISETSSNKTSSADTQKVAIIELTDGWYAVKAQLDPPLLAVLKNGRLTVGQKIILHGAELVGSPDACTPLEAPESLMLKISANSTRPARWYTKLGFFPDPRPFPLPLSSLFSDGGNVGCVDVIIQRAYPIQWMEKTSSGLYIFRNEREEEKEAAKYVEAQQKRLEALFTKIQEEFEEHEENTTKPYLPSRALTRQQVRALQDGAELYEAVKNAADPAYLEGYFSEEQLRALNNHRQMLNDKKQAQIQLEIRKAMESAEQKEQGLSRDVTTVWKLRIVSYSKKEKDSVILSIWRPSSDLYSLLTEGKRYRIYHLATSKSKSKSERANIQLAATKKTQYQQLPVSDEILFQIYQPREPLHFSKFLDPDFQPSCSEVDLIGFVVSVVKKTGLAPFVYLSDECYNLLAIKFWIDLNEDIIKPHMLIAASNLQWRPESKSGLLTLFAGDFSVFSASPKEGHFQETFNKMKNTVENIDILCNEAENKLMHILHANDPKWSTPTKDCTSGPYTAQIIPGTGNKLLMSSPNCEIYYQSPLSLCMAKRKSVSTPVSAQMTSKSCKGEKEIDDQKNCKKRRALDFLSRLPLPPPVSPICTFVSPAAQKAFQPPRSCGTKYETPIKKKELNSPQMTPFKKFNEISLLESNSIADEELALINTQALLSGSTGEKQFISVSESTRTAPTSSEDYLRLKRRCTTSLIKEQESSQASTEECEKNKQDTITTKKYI

target: regular BRD9 isoform (Bromodomain Containing 9), FLAG-V5-tagged (human (cDNA of the MEC1 CLL cell line and an SF3B1-mutated CLL case)) (UniProt Q9H8M2); assay: affinity purification with mass spectrometry; V5-tag-based co-immunoprecipitation from nuclear extracts of HEK293T cell lines stably overexpressing the regular or alternative BRD9 isoform (control: FLAG-V5-tagged YFP), analysis by mass spectrometry

| Substance | binding |
| --- | --- |
| ASPM (from UniProt Q8IZT6 1-3477) | binds |
| BICRA (from UniProt Q9NZM4 1-1560) | binds |
| BRCA2 (from UniProt P51587 1-3418) | binds |
| CHD9 (from UniProt Q3L8U1 1-2897) | binds |
| SMARCA4 (from UniProt P51532 1-1647) | binds |
| SMARCC1 (from UniProt Q92922 1-1105) | binds |
| SPEN (from UniProt Q96T58 1-3664) | binds |

No constants are given. Whether binding was seen depends on the method and setting. Binding seen in cells or lysates may run through a third protein. These calls come from enrichment with a bait or labelling near it, and not all partners need be listed.
